Results published in PMC9334755 (Cancer Biology & Medicine, 2021).

How the values were obtained:
[1] = rat, in vivo, iv, 5 mg/kg
[2] = Caco-2 permeability assay; settings: human
Excerpt: protein kinases Beagle dog PK
Kinase Inhibition (%) Kinase Inhibition (%) IV Oral
Species Plasma protein binding (%)
Tcells, and B-cell lymphoma
Compound Caco-2 permeability assay
(1 picture or pasted object on this page, not shown here)

Papp [2]	Compound	CL [1]	Vss [1]	t½ [1]
–	COC/C=C/C(=O)N1CC[C@@H](n2nc(-c3ccc(Oc4ccccc4)cc3)c(C(N)=O)c2N)C1 [SY-1530]	22.9 mL/min/kg	1.835 L/kg	3.08 h
0.455 ×10⁻⁶ cm/s	CC(C)NCC(O)COc1ccc(CC(N)=O)cc1 (stereo not shown) [atenolol, reference compound]	–	–	–
